## Percent effect of library compounds

The chains behind the UniProt entries cited, without tags or fusion partners. Residues count along the entry.
UniProt I6X8D2, whole entry: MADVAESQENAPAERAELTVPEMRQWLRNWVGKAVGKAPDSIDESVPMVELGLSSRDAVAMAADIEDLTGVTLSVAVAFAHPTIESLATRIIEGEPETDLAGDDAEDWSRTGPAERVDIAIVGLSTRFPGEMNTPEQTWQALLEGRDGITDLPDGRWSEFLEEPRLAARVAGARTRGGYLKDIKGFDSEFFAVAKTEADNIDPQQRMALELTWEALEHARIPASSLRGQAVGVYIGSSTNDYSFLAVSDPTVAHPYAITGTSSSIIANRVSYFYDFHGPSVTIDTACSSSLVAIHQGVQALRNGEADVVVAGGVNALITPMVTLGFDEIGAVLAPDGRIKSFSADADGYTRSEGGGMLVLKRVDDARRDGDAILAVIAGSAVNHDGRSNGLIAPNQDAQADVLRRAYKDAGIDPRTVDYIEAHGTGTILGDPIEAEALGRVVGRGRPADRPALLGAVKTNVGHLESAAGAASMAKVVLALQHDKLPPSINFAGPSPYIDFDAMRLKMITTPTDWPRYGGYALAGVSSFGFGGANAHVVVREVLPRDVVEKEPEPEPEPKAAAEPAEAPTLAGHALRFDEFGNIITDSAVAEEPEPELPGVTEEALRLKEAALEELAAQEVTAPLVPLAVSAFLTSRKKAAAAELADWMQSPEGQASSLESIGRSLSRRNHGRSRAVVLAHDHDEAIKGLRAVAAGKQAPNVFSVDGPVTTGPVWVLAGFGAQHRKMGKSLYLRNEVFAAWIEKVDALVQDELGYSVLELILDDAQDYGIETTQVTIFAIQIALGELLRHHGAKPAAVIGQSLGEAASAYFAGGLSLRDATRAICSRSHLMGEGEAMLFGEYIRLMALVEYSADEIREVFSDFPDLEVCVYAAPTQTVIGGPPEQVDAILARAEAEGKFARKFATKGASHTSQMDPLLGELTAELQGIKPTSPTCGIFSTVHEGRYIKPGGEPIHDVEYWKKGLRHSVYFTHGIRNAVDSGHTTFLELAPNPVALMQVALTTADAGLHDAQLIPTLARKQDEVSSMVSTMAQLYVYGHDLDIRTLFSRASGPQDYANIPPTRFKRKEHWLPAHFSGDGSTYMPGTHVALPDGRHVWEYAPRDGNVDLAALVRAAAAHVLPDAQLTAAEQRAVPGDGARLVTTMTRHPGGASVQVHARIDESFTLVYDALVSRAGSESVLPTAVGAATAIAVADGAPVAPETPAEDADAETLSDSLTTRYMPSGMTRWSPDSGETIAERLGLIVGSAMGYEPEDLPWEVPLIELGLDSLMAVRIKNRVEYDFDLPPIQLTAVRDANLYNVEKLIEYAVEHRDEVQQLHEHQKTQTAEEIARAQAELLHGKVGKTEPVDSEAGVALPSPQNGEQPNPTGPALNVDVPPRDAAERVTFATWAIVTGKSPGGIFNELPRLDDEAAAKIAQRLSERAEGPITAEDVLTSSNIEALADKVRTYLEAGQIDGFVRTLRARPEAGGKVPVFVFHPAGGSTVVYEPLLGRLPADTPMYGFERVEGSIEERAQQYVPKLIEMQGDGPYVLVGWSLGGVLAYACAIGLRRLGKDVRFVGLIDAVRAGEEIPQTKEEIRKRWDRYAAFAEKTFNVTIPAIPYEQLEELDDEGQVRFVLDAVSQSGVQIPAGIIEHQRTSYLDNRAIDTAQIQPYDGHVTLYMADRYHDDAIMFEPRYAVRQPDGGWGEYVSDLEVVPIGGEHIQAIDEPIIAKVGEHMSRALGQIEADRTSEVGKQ
UniProt A4I591, 1-473: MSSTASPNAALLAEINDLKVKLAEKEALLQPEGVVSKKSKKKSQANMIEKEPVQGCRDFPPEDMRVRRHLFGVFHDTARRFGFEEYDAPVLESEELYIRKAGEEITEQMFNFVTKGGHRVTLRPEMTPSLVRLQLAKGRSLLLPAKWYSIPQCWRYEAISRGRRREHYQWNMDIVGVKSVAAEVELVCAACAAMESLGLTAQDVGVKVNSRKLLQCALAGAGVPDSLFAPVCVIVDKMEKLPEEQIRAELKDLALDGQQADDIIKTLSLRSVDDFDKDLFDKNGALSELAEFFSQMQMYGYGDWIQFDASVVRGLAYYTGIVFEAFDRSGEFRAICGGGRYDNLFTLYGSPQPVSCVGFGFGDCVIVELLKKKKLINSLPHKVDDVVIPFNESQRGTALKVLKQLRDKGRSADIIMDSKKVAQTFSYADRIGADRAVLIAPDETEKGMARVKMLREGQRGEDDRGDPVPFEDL

From ChEMBL document CHEMBL3988442, “University of Dundee, Small-Polar-MMV Screening Library” (2021).

Pks13 thioesterase: 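Enzyme assay of the thioesterase domain of polyketide synthase 13; the read-out is not stated. Target: Polyketide synthase Pks13, Mycobacterium tuberculosis (UniProt I6X8D2). Compounds at 30 µM. Higher reads as stronger inhibition (inferred from which compounds were picked for retests). About 67,000 compounds were tested under these conditions; 0.46% (about 300) showed 50% or more at least once.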
LiHisRS: 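Enzyme assay of histidyl-tRNA synthetase; the read-out is not stated. Target: Histidine-tRNA ligase, Leishmania infantum (UniProt A4I591). Tested at 30 µM. Higher reads as stronger inhibition (inferred: compounds with an IC50 in retests scored well above the rest). The assay is labelled LdHisRS but filed under L. infantum. About 69,000 compounds were tested under these conditions; 0.6% (about 410) showed 50% or more at least once.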

Values are the deposited “Percent Effect”, in %. The record does not define 0% and 100%; most values in the screen are far below 50% and negative numbers occur (in some assays of this library far below -100). Compounds were drawn at random from those tested, without regard to their results.

CC(C(=O)NCc1ccnc(N2CCOCC2)c1)n1cccn1 (stereo not drawn) read Pks13 thioesterase: -16.01%; LiHisRS: 12.5%. CCn1nnnc1-c1cccc(NC(=O)CCn2cc(C)cn2)c1 gave Pks13 thioesterase: -9.098%; LiHisRS: 16.44%. Result for CCS(=O)(=O)Cc1ccn(-c2cccc(F)c2)n1 was Pks13 thioesterase: 14.62%; LiHisRS: 6.494%. Result for CC(=O)N1C[C@H]2CCCN(c3ncc(C)cn3)[C@H]2C1 was Pks13 thioesterase: -29.89%; LiHisRS: 24%.

Result for Cc1cnn(CCNCc2csc(-c3ccc(C)o3)n2)c1 was Pks13 thioesterase: -12.38%; LiHisRS: 29.09%. For COc1ccc(-c2cc(C3CCCCCN3S(C)(=O)=O)on2)cc1 (stereo not drawn) the result was Pks13 thioesterase: -0.4021%; LiHisRS: 4.196%. Cc1nc(C)n(C2CCCN(C(=O)COc3cccc(C#N)c3)C2)n1 (stereo not drawn) gave Pks13 thioesterase: -21.48%; LiHisRS: 12.17%. COCCOCC(=O)Nc1ccc(Br)cc1F gave Pks13 thioesterase: -22.69%; LiHisRS: 11.43%.

For CNC(=O)c1ccc(C(=O)N2CCCC2c2cnn(C)c2)cn1 (stereo not drawn) the result was Pks13 thioesterase: -6.212%; LiHisRS: -34.85%. Result for CN(c1ccccc1)S(=O)(=O)c1cc2c(c(C(=O)O)c1)OCCO2 was Pks13 thioesterase: -9.617%; LiHisRS: 15.38%. Result for CC(CN1CCOCC1)NC(=O)c1cc(Cl)c2c(c1)OCCO2 (stereo not drawn) was Pks13 thioesterase: -19.74%; LiHisRS: 8.85%. With COc1ccc(OCCC(=O)N2CCCC2Cn2cccn2)cc1 (stereo not drawn) the screen gave Pks13 thioesterase: -14.39%; LiHisRS: 11.5%.

For Cc1cnn(CCNCc2c(C)nn(C)c2Cl)c1 the result was Pks13 thioesterase: 4.188%; LiHisRS: 2.679%. With CN(C)CCO[C@H]1CN(Cc2ccco2)[C@@H]2COC[C@H]12 the screen gave Pks13 thioesterase: -11.28%; LiHisRS: 13.64%. COCc1nc(CNC(=O)C(C)n2ccnc2C(C)C)no1 (stereo not drawn) gave Pks13 thioesterase: -12.44%; LiHisRS: 10.83%. Cn1cc(CN2Cc3c(cnn3C)C(COCC3CC3)C2)cn1 (stereo not drawn) read Pks13 thioesterase: -3.252%; LiHisRS: 4.839%.

O=C1CC(N(C(=O)c2ccc3c(c2)CCC3)C2CC2)C(=O)N1 (stereo not drawn) read Pks13 thioesterase: -24.73%; LiHisRS: 3.371%. For CC(=O)N1CCC(c2cncc(N3CCCCCC3)n2)CC1 the result was Pks13 thioesterase: 13.9%; LiHisRS: 12.77%. With O=C(c1cnc2c(cnn2C2CCCC2)c1)N1CCCSCC1 the screen gave Pks13 thioesterase: -8.632%; LiHisRS: 5.357%. For CC(=O)Nc1nc(SCc2ccc3c(c2)OCO3)ns1 the result was Pks13 thioesterase: 15.41%; LiHisRS: -8.571%.

With COc1cc(CN(C)Cc2cccnc2)c(SC)cc1OC the screen gave Pks13 thioesterase: -13.22%; LiHisRS: 12.24%. With Cc1nn(CCO)c(C)c1CNC1CCc2c(Cl)cccc21 (stereo not drawn) the screen gave Pks13 thioesterase: -37.8%; LiHisRS: 10.68%. Result for CN(C)CCN(C)c1ccc(-c2nc(COc3ccccc3)no2)cn1 was Pks13 thioesterase: -11.39%; LiHisRS: 2.857%. With CCC1(CC)C(=O)NC(=O)N=C1Nc1ccc(C)cc1 the screen gave Pks13 thioesterase: -3.729%; LiHisRS: 11.9%.

CN(C)c1ccc(C(=O)N2CCCN(Cc3cscn3)CC2)nn1 gave Pks13 thioesterase: -21.22%; LiHisRS: 17.09%. For N#Cc1ccc(C(=O)NS(=O)(=O)c2ccc(F)c(F)c2)cc1 the result was Pks13 thioesterase: -29.16%; LiHisRS: -1.01%. For CC(C)N1CCC(N2CCOC3(CCCC3)C2)C1=O (stereo not drawn) the result was Pks13 thioesterase: -10.34%; LiHisRS: 8.219%. With CCc1ccc(C(=O)N2CC[C@](C)(O)C(C)(C)C2)[nH]1 the screen gave Pks13 thioesterase: 4.517%; LiHisRS: 5.833%.

With COCc1nc(N(C)C/C=C/c2ccccc2)c2cnn(C)c2n1 the screen gave Pks13 thioesterase: -33.78%; LiHisRS: 11.67%. CC(C)CCNC(=O)c1ccc(Cl)c(NS(C)(=O)=O)c1 read Pks13 thioesterase: -8.381%; LiHisRS: 15.56%. With COc1c(C)cnc(CNC(=O)CCOCc2ccccc2)c1C the screen gave Pks13 thioesterase: -9.062%; LiHisRS: 20%. COc1ccccc1C1CNCCN1C(=O)c1ccc(F)cc1 (stereo not drawn) gave Pks13 thioesterase: 4.132%; LiHisRS: 4.255%.

For CC1CCN(c2ncc3c(n2)CN(c2ccccc2)C3=O)CC1 the result was Pks13 thioesterase: -7.43%; LiHisRS: 8.491%. CC(C)c1nccc(CN2CCCC(O)(CN3CCCC3)C2)n1 (stereo not drawn) read Pks13 thioesterase: -8.688%; LiHisRS: 9.836%.